Drawing on the supplement of paper PMC8256030, this text covers mCherry and percent effect for 34 compounds.

Structures are written as SMILES. Values joined by “and” are separate entries in the source; they are usually repeats but may differ in a detail not shown here. Equal values may be shown once. The list shows a part of the results. This data set is noisy: repeats of one test often differ as much as different tests do.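 HEK293T cells were given each compound shortly before transfection with a reporter in which red mCherry is followed by the SARS-CoV-2 frameshift element and then GFP in the −1 frame, so GFP appears only after frameshifting.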

Assay [1] has as its system SARS-CoV-2 -1 PRF reporter mCherry-FSE-GFP(-1). In words: mCherry (red) intensity as percent of control; higher = higher upstream reporter expression. The conditions noted are these: 10 µM; 24 h; HEK293T.
Assay [2] has the same test system. The assay is described as follows: percent effect, decrease of GFP/mCherry ratio (-1 PRF reporter) relative to controls; higher = stronger frameshift inhibition. Particulars: 10 µM; 24 h; HEK293T.

With `CCn1c(=O)c2c(nc(/C=C/c3ccc(OC)c(OC)c3)n2C)n(CC)c1=O` [istradefylline], in assay [1], the mCherry was 101%. Also, the percent effect in assay [2] was -2.52%.

For the compound `COc1c(C)c2c(c(O)c1C/C=C(\C)CCC(=O)OCCN1CCOCC1)C(=O)OC2` [Mycophenolate mofetil], the mCherry in assay [1] came out at 146%. Further, the percent effect in assay [2] is -5.18%.

As to `CO/N=C(\C(=O)N[C@@H]1C(=O)N2C(C(=O)O)=C(COC(N)=O)CS[C@H]12)c1ccco1` [Zinacef], in assay [1], the mCherry came out at 99%. Also, in assay [2], the percent effect was -2.28%.

Consider `CC1(C)S[C@@H]2[C@H](NC(=O)[C@H](N)c3ccc(O)cc3)C(=O)N2[C@H]1C(=O)O` [Amoxicillin], for which, in assay [1], the mCherry was found to be 58.4%. For the same compound, the percent effect in assay [2] was -4.4%.

Consider `C#C[C@]1(O)CC[C@H]2[C@@H]3CCC4=CC(=O)CC[C@@H]4[C@H]3CC[C@@]21CC` [levonorgestrel], for which the mCherry in assay [1] was 85.6% and 106%. In assay [2], the percent effect is -1.47% and 3.39%.

`CC(C)[N+]1(C)[C@@H]2CC[C@H]1C[C@@H](OC(=O)C(CO)c1ccccc1)C2` (stereo partly drawn) had a mCherry in assay [1] of 95.7%. Moreover, the percent effect in assay [2] came to 7.29%.

As to `S=c1[nH]cnc2nc[nH]c12`, in assay [1], the mCherry was determined as 120%. The percent effect in assay [2] is -1.5%.

As for `CC(=O)OCC(=O)[C@H]1CC[C@H]2[C@@H]3CCC4=CC(=O)CC[C@]4(C)[C@H]3CC[C@]12C`, in assay [1], the mCherry came to 67.6%. In addition, in assay [2], the percent effect was -2.55%.

`CC(=O)OCC(=O)[C@@]1(O)[C@H](OC(C)=O)C[C@H]2[C@@H]3CCC4=CC(=O)C=C[C@]4(C)[C@@]3(F)[C@@H](O)C[C@@]21C` displayed a mCherry in assay [1] of 93.8%. For the same compound, in assay [2], the percent effect was -1.11%.

In the case of `CCN(CC)CCCN(c1ccccc1)C1Cc2ccccc2C1` [aprindine], in assay [1], the mCherry worked out at 111%. For the same compound, the percent effect in assay [2] is -9.09%.

With `CNCCC=C1c2ccccc2CCc2ccccc21` [nortriptyline], the mCherry in assay [1] was 133%. Besides, in assay [2], the percent effect is -8.38%.

The compound `Oc1ncnc2[nH]ncc12` showed a mCherry in assay [1] of 84.6%. Also, the percent effect in assay [2] is -1.4%.

For the compound `Cn1c(NCCN(CCO)CCCc2ccc([N+](=O)[O-])cc2)cc(=O)n(C)c1=O` [nifekalant], the mCherry in assay [1] is 85.1%. The percent effect in assay [2] is -0.327%.

As to `CCC(C)(Oc1ccc(C2(c3ccc(OC(C)(CC)C(=O)O)cc3)CCCCC2)cc1)C(=O)O` (stereo not drawn) [Clinofibrate], in assay [1], the mCherry was 87.7%. In assay [2], the percent effect was -2.91%.

Regarding `CCCc1cc(C(N)=S)ccn1` [protionamide], the mCherry in assay [1] is 88% and 111%. The percent effect in assay [2] was -1.79% and -13.2%.

On to `Nc1nc2c(ncn2COC(CO)CO)c(=O)[nH]1` [Ganciclovir], for which, in assay [1], the mCherry stood at 80.7%. Moreover, in assay [2], the percent effect turned out to be 1.09%.

Consider `C#CC1(O)CC[C@H]2[C@@H]3CCC4=CC(=O)CC[C@@H]4[C@H]3CC[C@@]21CC` (stereo partly drawn) [norgestrel], for which the mCherry in assay [1] worked out at 113%. In addition, in assay [2], the percent effect was -2.29%.

Compound `Nc1ccc(/N=N/c2ccccc2)c(N)n1` registered a mCherry in assay [1] of 108%. Moreover, the percent effect in assay [2] was -2.72%.

In assay [1], `CCN(CC)C(=O)c1cccnc1` [nikethamide] returned a mCherry of 92%. In addition, the percent effect in assay [2] worked out at 1.81%.

`CC(C)c1ccccc1` [Sucralfate] registered a mCherry in assay [1] of 89.7%. Further, the percent effect in assay [2] was -6.66%.

In turn, `CCOc1ccc(Cc2cc([C@@H]3O[C@H](CO)[C@@H](O)[C@H](O)[C@H]3O)ccc2Cl)cc1` [Dapagliflozin] came in with a mCherry in assay [1] of 124%. Further, the percent effect in assay [2] amounted to 4.12%.

Turning to `CO[C@H]1C[C@H](O[C@@H]2/C(C)=C/C[C@@H]3C[C@@H](C[C@]4(CC[C@H](C)[C@@H](C5CCCCC5)O4)O3)OC(=O)[C@@H]3C=C(C)/C(=N/O)[C@H]4OC/C(=C\C=C\[C@@H]2C)[C@]43O)O[C@@H](C)[C@@H]1O`, the mCherry in assay [1] stood at 117%. For the same compound, in assay [2], the percent effect worked out at 2.03%.

As to `CCCN[C@H]1CCc2nc(N)sc2C1` [pramipexole], in assay [1], the mCherry was 90.2%. The percent effect in assay [2] was -3.92%.

With `Cc1ccc(O)c2ncccc12` [tiliquinol], the mCherry in assay [1] was 107%. The percent effect in assay [2] is -2.27%.

Consider `OC[C@@H](O)CN1CCN(c2ccccc2)CC1` [levodropropizine], for which the mCherry in assay [1] amounted to 93.7%. For the same compound, the percent effect in assay [2] is -8.8%.

In turn, `Cc1noc(NS(=O)(=O)c2ccc(N)cc2)c1C` [sulfafurazole] registered a mCherry in assay [1] of 117%. Besides, the percent effect in assay [2] was -0.692%.

With `C[C@]12CCC(=O)C=C1C=C[C@@H]1[C@@H]2CC[C@@]2(C)[C@H]1CC[C@@]21CCC(=O)O1` [Canrenone], the mCherry in assay [1] was determined as 85.5%. Further, the percent effect in assay [2] was -7.14%.

Take `CC(O)(P(=O)(O)O)P(=O)(O)O` [etidronic acid]: the mCherry in assay [1] was 106%. Also, the percent effect in assay [2] was -6.29%.

`CN1CCN(C2=Nc3cc(Cl)ccc3Nc3ccccc32)CC1`: the mCherry in assay [1] is 92.8%. In addition, the percent effect in assay [2] is -8.79%.

In turn, `CCN(CC)CCNC(=O)COc1ccc(OC)cc1` registered a mCherry in assay [1] of 89.2%. In addition, the percent effect in assay [2] is -4.08%.

With `CCOC(=O)c1ncn2c1CN(C)C(=O)c1cc(F)ccc1-2` [flumazenil], the mCherry in assay [1] is 124% and 107%. Moreover, in assay [2], the percent effect is 0.393% and -2.89%.

Take `O=C([O-])CN(CCN(CC(=O)[O-])CC(=O)[O-])CC(=O)[O-].[Co+2].[Co+2]` [Kelocyanor]: in assay [1], the mCherry was found to be 76.7%. The percent effect in assay [2] was -0.576%.

For the compound `CCCCC[C@H](O)CC[C@@H]1[C@H]2Cc3cccc(OCC(=O)O)c3C[C@H]2C[C@H]1O` [Treprostinil], in assay [1], the mCherry amounted to 86.2%. The percent effect in assay [2] was -6.52%.

`CN(C)c1ccc2nc3ccc(=[N+](C)C)cc-3sc2c1` gave a mCherry in assay [1] of 17.3%. The percent effect in assay [2] came out at 12.7%.
